These are yes or no findings as the source states them, for the method shown. Binding seen in cells or lysates may run through a third protein. Some results given as binding are weak or reduced against the parent protein; the word gives no strength. Where a sequence is shown, tags or fusion partners need not be part of it.
T1: Caprin1 fragment 351–390 in pCS2-GFP-Myc (human)
T1 sequence: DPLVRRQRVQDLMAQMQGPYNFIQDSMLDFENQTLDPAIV

B1: Ras-GTPase-activating protein SH3 domain-binding protein 2 (G3BP2), expressed from pCS2-Flag or pCS2-Myc (protein, UniProt Q9UN86 1-482)
chain: MVMEKPSPLLVGREFVRQYYTLLNKAPEYLHRFYGRNSSYVHGGVDASGKPQEAVYGQNDIHHKVLSLNFSECHTKIRHVDAHATLSDGVVVQVMGLLSNSGQPERKFMQTFVLAPEGSVPNKFYVHNDMFRYEDEVFGDSEPELDEESEDEVEEEQEERQPSPEPVQENANSGYYEAHPVTNGIEEPLEESSHEPEPEPESETKTEELKPQVEEKNLEELEEKSTTPPPAEPVSLPQEPPKAFSWASVTSKNLPPSGTVSSSGIPPHVKAPVSQPRVEAKPEVQSQPPRVREQRPRERPGFPPRGPRPGRGDMEQNDSDNRRIIRYPDSHQLFVGNLPHDIDENELKEFFMSFGNVVELRINTKGVGGKLPNFGFVVFDDSEPVQRILIAKPIMFRGEVRLNVEEKKTRAARERETRGGGDDRRDIRRNDRGPGGPRGIVGGGMMRDRDGRGPPPRGGMAQKLGSGRGTGQMEGRFTGQRR

What was measured:
[1] = molecular target: T1, Caprin1 fragment 351–390 in pCS2-GFP-Myc (human); test: co-IP; HEK293T cells transfected with expression plasmids; lysates (50 mM Tris HCl pH 7.6, 150 mM NaCl, 0.5% NP40, 1 mM EDTA) precipitated with anti-Myc antibody and protein A/G beads at 4 °C; Western blot
[2] = molecular target: Ras-GTPase-activating protein SH3 domain-binding protein 1 (G3BP1), expressed from pCS2-Flag or pCS2-Myc (human) (UniProt Q13283); test: co-IP; unstressed HEK293T cells transfected with expression plasmids; lysates (50 mM Tris HCl pH 7.6, 150 mM NaCl, 0.5% NP40, 1 mM EDTA) precipitated with anti-Flag antibody and protein A/G beads at 4 °C; Western blot
GST-G3BP1 (human) = GST-G3BP1 (human) (UniProt Q13283); test: pull-down; GST-G3BP1 on glutathione beads incubated with lysates of transfected 293T cells at 4 °C for 1 h; Western blot; only the target purified

Molecule	binding (GST-G3BP1 (human))	further results
Ras-GTPase-activating protein SH3 domain-binding protein 1 (G3BP1), expressed from pCS2-Flag or pCS2-Myc (from UniProt Q13283 1-466)		binding [1]: binds
B1		binding [2]: binds
DPLVRRQRVQDLMAQMQGPYNFIQDSMLDFENQTLDPAIV (domain or fragment) [Caprin1 fragment 351–390 in pCS2-GFP-Myc]	binds	
DLMAQMQGPYNFIQDSMLDFENQTL (domain or fragment) [Caprin1 fragment 361–385 in pCS2-GFP-Myc]	binds	

— article PMC11085366
